Source: PMC8905620
No constants are given. Whether binding was seen depends on the method and setting.

By UniProt entry, the sequences of proteins in these tests, tags left out. Where a name states a change or a piece, a line headed by the entry shows the natural chain unless it says otherwise. Chains listed by the source or under a name are the forms on record and can include a tag or linker.
R957C Arkadia^927-994 RING domain (Q6ZNA4, form named): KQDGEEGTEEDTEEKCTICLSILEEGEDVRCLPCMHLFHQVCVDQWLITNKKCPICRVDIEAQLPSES

Biological target: R957C Arkadia^927-994 RING domain (human) (UniProt Q6ZNA4)
Assay: 15N NMR relaxation (correlation time from R2/R1); 15N T1, T2 and heteronuclear NOE at 298 K, 600 and 700 MHz; isotropic tumbling time 4.69 ns; both purified

R957C Arkadia^927-994 RING domain (from UniProt Q6ZNA4 927-994) (domain or fragment)
binding: no binding
